Source: publication PMC5628579, “Potent mechanism-based sirtuin-2-selective inhibition by an in situ-generated occupant of the substrate-binding site, “selectivity pocket” and NAD^+-binding site” (Chemical Science, 2017)

Assay: Interference with the Fluor de Lys Developer II reaction (deacetylated standard)
Conditions: for Developer II Activity (deacetylated standard 5 μM): compound 10 μM, control 552537

Row | SMILES | Developer II Activity (deacetylated standard 5 μM) [AFU] | inhibition of the developer reaction of the SIRT2 assay
1 | Cc1cc(C)nc(SCC(=O)Nc2ncc(Cc3cccc4ccccc34)s2)n1 [Compound 5, SirReal2, reference compound] | 563876 | 
2 | C[C@H](NC(=O)[C@H](CCCCNC(=S)CNC(=O)c1ccccc1Nc1cccc(OCCc2ccccc2)c1)NC(=O)OCc1ccccc1)C(N)=O [Compound 36] | 550218 | did not inhibit the developer reaction
3 | C[C@H](NC(=O)[C@H](CCCCNC(=O)CNC(=O)c1ccccc1Nc1cccc(OCCc2ccccc2)c1)NC(=O)OCc1ccccc1)C(N)=O [Compound 26] | 548908 | 
4 | NC(=O)c1ccccc1Nc1cccc(OCCc2ccccc2)c1 [Compound 6, 3′-phenethyloxy-2-anilinobenzamide, reference compound] | 540425 | 
